Test results taken from PMC3017119, “Structural Basis for the Recognition of Cellular mRNA Export Factor REF by Herpes Viral Proteins HSV-1 ICP27 and HVS ORF57” (PLoS Pathogens, 2011).
These are yes or no findings as the source states them, for the method shown.

By UniProt entry, the sequences of proteins in these tests, tags left out. Residues count along the entry.
UniProt Q16629, residues 11-84: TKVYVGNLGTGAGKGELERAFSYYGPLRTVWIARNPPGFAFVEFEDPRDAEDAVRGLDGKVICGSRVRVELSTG

Assays:
9G8 = 9G8 (UniProt Q16629); test: NMR titration; both purified
[1] = biological target: REF^54–155 (recombinant, for NMR) (murine) (UniProt Q9JJW6); test: NMR titration; […]; 30°C; […], pH 6.2; both purified

SVWSRLGARR [ICP27^103–112]
binding (9G8): no binding

NRYGKKIKFGT [KSHV ORF57^100–110]
binding [1]: no binding (tested: >100000 µM)
